B1: RPN1 (protein, UniProt P04843 24-607)
chain: ASSEAPPLINEDVKRTVDLSSHLAKVTAEVVLAHLGGGSTSRATSFLLALEPELEARLAHLGVQVKGEDEEENNLEVRETKIKGKSGRFFTVKLPVALDPGAKISVIVETVYTHVLHPYPTQITQSEKQFVVFEGNHYFYSPYPTKTQTMRVKLASRNVESYTKLGNPTRSEDLLDYGPFRDVPAYSQDTFKVHYENNSPFLTITSMTRVIEVSHWGNIAVEENVDLKHTGAVLKGPFSRYDYQRQPDSGISSIRSFKTILPAAAQDVYYRDEIGNVSTSHLLILDDSVEMEIRPRFPLFGGWKTHYIVGYNLPSYEYLYNLGDQYALKMRFVDHVFDEQVIDSLTVKIILPEGAKNIEIDSPYEISRAPDELHYTYLDTFGRPVIVAYKKNLVEQHIQDIVVHYTFNKVLMLQEPLLVVAAFYILFFTVIIYVRLDFSITKDPAAEARMKVACITEQVLTLVNKRIGLYRHFDETVNRYKQSRDISTLNSGKKSLETEHKALTSEIALLQSRLKTEGSDLCDRVSEMQKLDAQVKELVLKSAVEAERLVAGKLKKDTYIENEKLISGKRQELVTKIDHILDAL
B2: STT3 oligosaccharyl-transferase STT3 Complex Catalytic Subunit B (protein, UniProt Q8TCJ2 1-826)
chain: MAEPSAPESKHKSSLNSSPWSGLMALGNSRHGHHGPGAQCAHKAAGGAAPPKPAPAGLSGGLSQPAGWQSLLSFTILFLAWLAGFSSRLFAVIRFESIIHEFDPWFNYRSTHHLASHGFYEFLNWFDERAWYPLGRIVGGTVYPGLMITAGLIHWILNTLNITVHIRDVCVFLAPTFSGLTSISTFLLTRELWNQGAGLLAACFIAIVPGYISRSVAGSFDNEGIAIFALQFTYYLWVKSVKTGSVFWTMCCCLSYFYMVSAWGGYVFIINLIPLHVFVLLLMQRYSKRVYIAYSTFYIVGLILSMQIPFVGFQPIRTSEHMAAAGVFALLQAYAFLQYLRDRLTKQEFQTLFFLGVSLAAGAVFLSVIYLTYTGYIAPWSGRFYSLWDTGYAKIHIPIIASVSEHQPTTWVSFFFDLHILVCTFPAGLWFCIKNINDERVFVALYAISAVYFAGVMVRLMLTLTPVVCMLSAIAFSNVFEHYLGDDMKRENPPVEDSSDEDDKRNQGNLYDKAGKVRKHATEQEKTEEGLGPNIKSIVTMLMLMLLMMFAVHCTWVTSNAYSSPSVVLASYNHDGTRNILDDFREAYFWLRQNTDEHARVMSWWDYGYQIAGMANRTTLVDNNTWNNSHIALVGKAMSSNETAAYKIMRTLDVDYVLVIFGGVIGYSGDDINKFLWMVRIAEGEHPKDIRESDYFTPQGEFRVDKAGSPTLLNCLMYKMSYYRFGEMQLDFRTPPGFDRTRNAEIGNKDIKFKHLEEAFTSEHWLVRIYKVKAPDNRETLDHKPRVTNIFPKQKYLSKKTTKRKRGYIKNKLVFKKGKKISKKTV
B3: MAGT1 (protein, UniProt Q9H0U3 30-335)
chain: QRKKEMVLSEKVSQLMEWTNKRPVIRMNGDKFRRLVKAPPRNYSVIVMFTALQLHRQCVVCKQADEEFQILANSWRYSSAFTNRIFFAMVDFDEGSDVFQMLNMNSAPTFINFPAKGKPKRGDTYELQVRGFSAEQIARWIADRTDVNIRVIRPPNYAGPLMLGLLLAVIGGLVYLRRSNMEFLFNKTGWAFAALCFVLAMTSGQMWNHIRGPPYAHKNPHTGHVNYIHGSSQAQFVAETHIVLLFNGGVTLGMVLLCEAATSDMDIGKRKIMCVAGIGLVVLFFSWMLSIFRSKYHGYPYSFLMS
B4: TAB3 (protein, UniProt Q8N5C8 1-712)
chain: MAQSSPQLDIQVLHDLRQRFPEIPEGVVSQCMLQNNNNLEACCRALSQESSKYLYMEYHSPDDNRMNRNRLLHINLGIHSPSSYHPGDGAQLNGGRTLVHSSSDGHIDPQHAAGKQLICLVQEPHSAPAVVAATPNYNPFFMNEQNRSAATPPSQPPQQPSSMQTGMNPSAMQGPSPPPPPPSYMHIPRYSTNPITVTVSQNLPSGQTVPRALQILPQIPSNLYGSPGSIYIRQTSQSSSGRQTPQSTPWQSSPQGPVPHYSQRPLPVYPHQQNYQPSQYSPKQQQIPQSAYHSPPPSQCPSPFSSPQHQVQPSQLGHIFMPPSPSTTPPHPYQQGPPSYQKQGSHSVAYLPYTASSLSKGSMKKIEITVEPSQRPGTAINRSPSPISNQPSPRNQHSLYTATTPPSSSPSRGISSQPKPPFSVNPVYITYTQPTGPSCTPSPSPRVIPNPTTVFKITVGRATTENLLNLVDQEERSAAPEPIQPISVIPGSGGEKGSHKYQRSSSSGSDDYAYTQALLLHQRARMERLAKQLKLEKEELERLKSEVNGMEHDLMQRRLRRVSCTTAIPTPEEMTRLRSMNRQLQINVDCTLKEVDLLQSRGNFDPKAMNNFYDNIEPGPVVPPKPSKKDSSDPCTIERKARRISVTSKVQADIHDTQAAAADEHRTGSTQSPRTQPRDEDYEGAPWNCDSCTFLNHPALNRCEQCEMPRYT
B5: DVL1 (protein, UniProt O14640 1-695)
chain: MAETKIIYHMDEEETPYLVKLPVAPERVTLADFKNVLSNRPVHAYKFFFKSMDQDFGVVKEEIFDDNAKLPCFNGRVVSWLVLAEGAHSDAGSQGTDSHTDLPPPLERTGGIGDSRPPSFHPNVASSRDGMDNETGTESMVSHRRERARRRNREEAARTNGHPRGDRRRDVGLPPDSASTALSSELESSSFVDSDEDGSTSRLSSSTEQSTSSRLIRKHKRRRRKQRLRQADRASSFSSITDSTMSLNIVTVTLNMERHHFLGISIVGQSNDRGDGGIYIGSIMKGGAVAADGRIEPGDMLLQVNDVNFENMSNDDAVRVLREIVSQTGPISLTVAKCWDPTPRSYFTVPRADPVRPIDPAAWLSHTAALTGALPRYGTSPCSSAVTRTSSSSLTSSVPGAPQLEEAPLTVKSDMSAVVRVMQLPDSGLEIRDRMWLKITIANAVIGADVVDWLYTHVEGFKERREARKYASSLLKHGFLRHTVNKITFSEQCYYVFGDLCSNLATLNLNSGSSGTSDQDTLAPLPHPAAPWPLGQGYPYQYPGPPPCFPPAYQDPGFSYGSGSTGSQQSEGSKSSGSTRSSRRAPGREKERRAAGAGGSGSESDHTAPSGVGSSWRERPAGQLSRGSSPRSQASATAPGLPPPHPTTKAYTVVGGPPGGPPVRELAAVPPELTGSRQSFQKAMGNPCEFFVDIM
B6: TAB2 (protein, UniProt Q9NYJ8 1-693)
chain: MAQGSHQIDFQVLHDLRQKFPEVPEVVVSRCMLQNNNNLDACCAVLSQESTRYLYGEGDLNFSDDSGISGLRNHMTSLNLDLQSQNIYHHGREGSRMNGSRTLTHSISDGQLQGGQSNSELFQQEPQTAPAQVPQGFNVFGMSSSSGASNSAPHLGFHLGSKGTSSLSQQTPRFNPIMVTLAPNIQTGRNTPTSLHIHGVPPPVLNSPQGNSIYIRPYITTPGGTTRQTQQHSGWVSQFNPMNPQQVYQPSQPGPWTTCPASNPLSHTSSQQPNQQGHQTSHVYMPISSPTTSQPPTIHSSGSSQSSAHSQYNIQNISTGPRKNQIEIKLEPPQRNNSSKLRSSGPRTSSTSSSVNSQTLNRNQPTVYIAASPPNTDELMSRSQPKVYISANAATGDEQVMRNQPTLFISTNSGASAASRNMSGQVSMGPAFIHHHPPKSRAIGNNSATSPRVVVTQPNTKYTFKITVSPNKPPAVSPGVVSPTFELTNLLNHPDHYVETENIQHLTDPTLAHVDRISETRKLSMGSDDAAYTQALLVHQKARMERLQRELEIQKKKLDKLKSEVNEMENNLTRRRLKRSNSISQIPSLEEMQQLRSCNRQLQIDIDCLTKEIDLFQARGPHFNPSAIHNFYDNIGFVGPVPPKPKDQRSIIKTPKTQDTEDDEGAQWNCTACTFLNHPALIRCEQCEMPRHF
B7: VANGL1 (protein, UniProt Q8TAA9 1-524)
chain: MDTESTYSGYSYYSSHSKKSHRQGERTRERHKSPRNKDGRGSEKSVTIQPPTGEPLLGNDSTRTEEVQDDNWGETTTAITGTSEHSISQEDIARISKDMEDSVGLDCKRYLGLTVASFLGLLVFLTPIAFILLPPILWRDELEPCGTICEGLFISMAFKLLILLIGTWALFFRKRRADMPRVFVFRALLLVLIFLFVVSYWLFYGVRILDSRDRNYQGIVQYAVSLVDALLFIHYLAIVLLELRQLQPMFTLQVVRSTDGESRFYSLGHLSIQRAALVVLENYYKDFTIYNPNLLTASKFRAAKHMAGLKVYNVDGPSNNATGQSRAMIAAAARRRDSSHNELYYEEAEHERRVKKRKARLVVAVEEAFIHIQRLQAEEQQKAPGEVMDPREAAQAIFPSMARALQKYLRITRQQNYHSMESILQHLAFCITNGMTPKAFLERYLSAGPTLQYDKDRWLSTQWRLVSDEAVTNGLRDGIVFVLKCLDFSLVVNVKKIPFIILSEEFIDPKSHKFVLRLQSETSV
B8: TAB1 (protein, UniProt Q15750 1-504)
chain: MAAQRRSLLQSEQQPSWTDDLPLCHLSGVGSASNRSYSADGKGTESHPPEDSWLKFRSENNCFLYGVFNGYDGNRVTNFVAQRLSAELLLGQLNAEHAEADVRRVLLQAFDVVERSFLESIDDALAEKASLQSQLPEGVPQHQLPPQYQKILERLKTLEREISGGAMAVVAVLLNNKLYVANVGTNRALLCKSTVDGLQVTQLNVDHTTENEDELFRLSQLGLDAGKIKQVGIICGQESTRRIGDYKVKYGYTDIDLLSAAKSKPIIAEPEIHGAQPLDGVTGFLVLMSEGLYKALEAAHGPGQANQEIAAMIDTEFAKQTSLDAVAQAVVDRVKRIHSDTFASGGERARFCPRHEDMTLLVRNFGYPLGEMSQPTPSPAPAAGGRVYPVSVPYSSAQSTSKTSVTLSLVMPSQGQMVNGAHSASTLDEATPTLTNQSPTLTLQSTNTHTQSSSSSSDGGLFRSRPAHSLPPGEDGRVEPYVDFAEFYRLWSVDHGEQSVVTAP

Sequences of proteins named here, by UniProt entry; tags and fusion partners are left off. Residues count along the entry.
UniProt Q01973, residues 30-937: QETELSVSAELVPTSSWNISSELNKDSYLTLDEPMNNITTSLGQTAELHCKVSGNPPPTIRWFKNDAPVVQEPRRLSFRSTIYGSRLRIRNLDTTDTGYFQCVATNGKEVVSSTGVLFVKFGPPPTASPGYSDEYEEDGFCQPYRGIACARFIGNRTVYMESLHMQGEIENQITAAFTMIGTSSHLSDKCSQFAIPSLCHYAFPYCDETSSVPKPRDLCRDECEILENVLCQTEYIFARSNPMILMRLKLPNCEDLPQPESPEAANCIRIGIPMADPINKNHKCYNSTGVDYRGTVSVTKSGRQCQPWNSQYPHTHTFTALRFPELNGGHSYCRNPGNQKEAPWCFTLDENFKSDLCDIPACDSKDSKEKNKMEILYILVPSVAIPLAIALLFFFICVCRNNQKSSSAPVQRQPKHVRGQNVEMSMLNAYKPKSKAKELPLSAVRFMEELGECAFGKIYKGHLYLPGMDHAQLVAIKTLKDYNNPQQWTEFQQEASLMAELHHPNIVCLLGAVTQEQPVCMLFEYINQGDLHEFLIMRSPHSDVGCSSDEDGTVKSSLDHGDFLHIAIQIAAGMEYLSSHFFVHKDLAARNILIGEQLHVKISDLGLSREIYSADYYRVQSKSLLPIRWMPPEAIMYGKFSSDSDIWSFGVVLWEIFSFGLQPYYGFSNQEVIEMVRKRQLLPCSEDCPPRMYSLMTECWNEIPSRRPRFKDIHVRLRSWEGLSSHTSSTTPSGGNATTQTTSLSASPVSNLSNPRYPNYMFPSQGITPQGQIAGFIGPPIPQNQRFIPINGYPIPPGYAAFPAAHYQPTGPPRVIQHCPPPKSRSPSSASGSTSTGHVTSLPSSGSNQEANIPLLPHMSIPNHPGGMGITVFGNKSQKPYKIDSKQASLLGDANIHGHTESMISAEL
UniProt O00165: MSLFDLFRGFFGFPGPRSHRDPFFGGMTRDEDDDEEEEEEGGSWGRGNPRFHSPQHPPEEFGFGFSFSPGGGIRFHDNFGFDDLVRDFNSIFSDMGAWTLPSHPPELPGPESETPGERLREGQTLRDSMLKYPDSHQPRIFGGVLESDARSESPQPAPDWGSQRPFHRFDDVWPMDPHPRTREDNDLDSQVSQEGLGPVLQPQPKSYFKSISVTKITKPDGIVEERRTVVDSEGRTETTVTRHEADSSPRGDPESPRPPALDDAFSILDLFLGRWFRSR
UniProt Q9NYB9: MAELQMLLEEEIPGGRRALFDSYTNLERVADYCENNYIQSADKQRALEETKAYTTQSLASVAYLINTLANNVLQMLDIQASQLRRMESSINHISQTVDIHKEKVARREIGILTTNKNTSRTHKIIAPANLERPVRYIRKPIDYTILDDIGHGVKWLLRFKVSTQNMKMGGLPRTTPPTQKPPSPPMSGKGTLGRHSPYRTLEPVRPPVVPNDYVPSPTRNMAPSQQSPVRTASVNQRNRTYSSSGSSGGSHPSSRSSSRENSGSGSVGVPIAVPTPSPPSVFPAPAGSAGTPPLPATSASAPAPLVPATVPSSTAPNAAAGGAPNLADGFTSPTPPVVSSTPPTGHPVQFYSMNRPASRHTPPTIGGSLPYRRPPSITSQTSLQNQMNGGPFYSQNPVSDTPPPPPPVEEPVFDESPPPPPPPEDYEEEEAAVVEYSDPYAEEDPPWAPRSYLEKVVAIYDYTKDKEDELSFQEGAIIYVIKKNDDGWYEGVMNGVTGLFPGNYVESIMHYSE
UniProt P62993: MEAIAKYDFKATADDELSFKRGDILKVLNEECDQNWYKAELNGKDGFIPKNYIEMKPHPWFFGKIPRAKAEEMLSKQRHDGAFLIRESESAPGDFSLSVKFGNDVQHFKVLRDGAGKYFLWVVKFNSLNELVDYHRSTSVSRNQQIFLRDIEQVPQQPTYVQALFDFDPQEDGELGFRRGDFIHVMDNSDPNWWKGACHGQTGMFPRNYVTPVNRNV
UniProt Q9UM54: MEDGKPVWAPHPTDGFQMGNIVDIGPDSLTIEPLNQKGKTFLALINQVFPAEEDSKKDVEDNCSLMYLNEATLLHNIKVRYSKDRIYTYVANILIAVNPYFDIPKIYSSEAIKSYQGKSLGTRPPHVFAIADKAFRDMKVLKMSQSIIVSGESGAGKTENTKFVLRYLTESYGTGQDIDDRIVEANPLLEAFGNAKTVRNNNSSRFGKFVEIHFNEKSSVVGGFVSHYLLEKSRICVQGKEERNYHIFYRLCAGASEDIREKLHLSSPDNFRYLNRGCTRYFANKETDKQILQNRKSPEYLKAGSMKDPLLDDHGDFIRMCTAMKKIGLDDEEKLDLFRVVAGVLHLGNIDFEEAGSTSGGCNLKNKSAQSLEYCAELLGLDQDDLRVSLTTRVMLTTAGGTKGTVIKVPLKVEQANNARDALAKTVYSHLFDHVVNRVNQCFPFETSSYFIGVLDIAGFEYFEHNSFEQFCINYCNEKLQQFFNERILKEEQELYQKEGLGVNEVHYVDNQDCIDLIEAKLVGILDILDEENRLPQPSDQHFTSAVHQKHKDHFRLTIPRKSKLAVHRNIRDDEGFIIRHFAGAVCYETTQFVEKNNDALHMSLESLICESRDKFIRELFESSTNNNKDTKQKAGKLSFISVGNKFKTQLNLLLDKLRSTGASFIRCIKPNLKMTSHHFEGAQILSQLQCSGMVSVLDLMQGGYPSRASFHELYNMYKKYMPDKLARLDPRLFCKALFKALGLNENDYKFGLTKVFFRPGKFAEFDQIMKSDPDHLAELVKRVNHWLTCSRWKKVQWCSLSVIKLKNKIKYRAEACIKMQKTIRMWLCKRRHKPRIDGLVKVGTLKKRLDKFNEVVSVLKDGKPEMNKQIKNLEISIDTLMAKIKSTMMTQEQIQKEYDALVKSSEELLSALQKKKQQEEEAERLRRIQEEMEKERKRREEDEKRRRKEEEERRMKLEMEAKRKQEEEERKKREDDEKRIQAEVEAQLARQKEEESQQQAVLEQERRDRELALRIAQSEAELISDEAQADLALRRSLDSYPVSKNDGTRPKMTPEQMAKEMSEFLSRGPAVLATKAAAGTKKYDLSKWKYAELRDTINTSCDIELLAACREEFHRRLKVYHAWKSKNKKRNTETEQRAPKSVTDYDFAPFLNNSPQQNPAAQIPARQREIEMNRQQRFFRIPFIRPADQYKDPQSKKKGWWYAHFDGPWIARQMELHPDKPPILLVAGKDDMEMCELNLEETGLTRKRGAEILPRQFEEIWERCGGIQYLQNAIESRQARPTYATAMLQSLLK
UniProt Q9H792: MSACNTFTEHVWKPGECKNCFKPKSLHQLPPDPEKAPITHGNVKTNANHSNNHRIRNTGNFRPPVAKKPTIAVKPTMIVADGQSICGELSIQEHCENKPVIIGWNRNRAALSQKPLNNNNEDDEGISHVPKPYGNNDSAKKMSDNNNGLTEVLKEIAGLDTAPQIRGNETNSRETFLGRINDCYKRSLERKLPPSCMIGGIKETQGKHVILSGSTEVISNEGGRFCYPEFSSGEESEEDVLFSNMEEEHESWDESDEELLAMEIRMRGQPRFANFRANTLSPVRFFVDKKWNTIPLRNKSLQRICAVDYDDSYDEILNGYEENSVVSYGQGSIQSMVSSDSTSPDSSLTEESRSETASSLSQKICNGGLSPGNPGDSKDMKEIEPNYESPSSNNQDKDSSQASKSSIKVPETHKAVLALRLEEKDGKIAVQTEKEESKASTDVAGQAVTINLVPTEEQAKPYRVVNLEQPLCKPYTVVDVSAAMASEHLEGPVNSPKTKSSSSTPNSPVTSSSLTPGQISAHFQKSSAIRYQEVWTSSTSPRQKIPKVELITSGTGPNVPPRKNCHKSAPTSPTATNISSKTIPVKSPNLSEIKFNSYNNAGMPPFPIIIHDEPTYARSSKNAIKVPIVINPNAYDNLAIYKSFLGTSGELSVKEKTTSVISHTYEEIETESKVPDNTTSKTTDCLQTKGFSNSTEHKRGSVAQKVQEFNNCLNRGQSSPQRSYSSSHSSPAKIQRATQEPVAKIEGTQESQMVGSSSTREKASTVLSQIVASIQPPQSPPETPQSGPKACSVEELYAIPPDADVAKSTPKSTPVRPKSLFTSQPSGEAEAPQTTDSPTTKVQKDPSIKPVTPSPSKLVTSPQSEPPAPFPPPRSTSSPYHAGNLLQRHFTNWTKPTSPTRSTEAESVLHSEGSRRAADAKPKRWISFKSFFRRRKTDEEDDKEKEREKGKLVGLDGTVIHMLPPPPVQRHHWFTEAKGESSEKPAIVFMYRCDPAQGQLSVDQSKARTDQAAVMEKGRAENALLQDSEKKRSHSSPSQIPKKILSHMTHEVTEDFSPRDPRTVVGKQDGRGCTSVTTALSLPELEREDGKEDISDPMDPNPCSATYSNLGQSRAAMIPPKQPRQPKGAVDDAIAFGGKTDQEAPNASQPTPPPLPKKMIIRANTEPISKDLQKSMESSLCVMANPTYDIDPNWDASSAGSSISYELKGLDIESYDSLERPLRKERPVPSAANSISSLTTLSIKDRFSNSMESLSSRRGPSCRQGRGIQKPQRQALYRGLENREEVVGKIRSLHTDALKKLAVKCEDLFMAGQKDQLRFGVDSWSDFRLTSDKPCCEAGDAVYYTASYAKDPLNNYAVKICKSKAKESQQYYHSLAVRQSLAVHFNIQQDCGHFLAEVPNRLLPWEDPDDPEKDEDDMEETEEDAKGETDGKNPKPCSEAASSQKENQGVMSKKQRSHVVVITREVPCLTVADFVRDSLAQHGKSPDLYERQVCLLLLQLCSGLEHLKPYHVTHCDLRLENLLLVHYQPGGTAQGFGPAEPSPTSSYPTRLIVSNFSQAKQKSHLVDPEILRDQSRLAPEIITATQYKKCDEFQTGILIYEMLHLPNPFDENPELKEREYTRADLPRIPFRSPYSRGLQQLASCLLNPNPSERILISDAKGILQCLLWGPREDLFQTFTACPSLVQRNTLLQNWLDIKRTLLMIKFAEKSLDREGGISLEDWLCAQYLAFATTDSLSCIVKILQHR
UniProt O00459: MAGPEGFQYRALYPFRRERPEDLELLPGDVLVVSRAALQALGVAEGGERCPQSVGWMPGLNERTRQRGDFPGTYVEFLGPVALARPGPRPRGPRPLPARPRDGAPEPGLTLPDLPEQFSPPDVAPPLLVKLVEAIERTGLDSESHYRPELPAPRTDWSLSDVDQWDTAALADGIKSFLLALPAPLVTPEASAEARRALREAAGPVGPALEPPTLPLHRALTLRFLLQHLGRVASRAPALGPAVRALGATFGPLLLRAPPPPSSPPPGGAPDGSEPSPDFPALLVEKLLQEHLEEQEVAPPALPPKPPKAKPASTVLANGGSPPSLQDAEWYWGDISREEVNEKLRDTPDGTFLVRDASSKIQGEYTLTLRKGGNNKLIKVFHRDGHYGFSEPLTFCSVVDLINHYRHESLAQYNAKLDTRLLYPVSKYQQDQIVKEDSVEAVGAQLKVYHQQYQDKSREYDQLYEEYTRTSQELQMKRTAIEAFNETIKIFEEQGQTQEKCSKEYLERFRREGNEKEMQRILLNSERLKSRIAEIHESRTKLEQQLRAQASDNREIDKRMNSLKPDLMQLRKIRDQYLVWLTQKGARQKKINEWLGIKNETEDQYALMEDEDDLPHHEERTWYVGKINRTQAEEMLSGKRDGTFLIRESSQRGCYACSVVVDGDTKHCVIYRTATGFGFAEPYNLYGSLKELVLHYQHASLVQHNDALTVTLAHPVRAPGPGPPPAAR
UniProt P35222: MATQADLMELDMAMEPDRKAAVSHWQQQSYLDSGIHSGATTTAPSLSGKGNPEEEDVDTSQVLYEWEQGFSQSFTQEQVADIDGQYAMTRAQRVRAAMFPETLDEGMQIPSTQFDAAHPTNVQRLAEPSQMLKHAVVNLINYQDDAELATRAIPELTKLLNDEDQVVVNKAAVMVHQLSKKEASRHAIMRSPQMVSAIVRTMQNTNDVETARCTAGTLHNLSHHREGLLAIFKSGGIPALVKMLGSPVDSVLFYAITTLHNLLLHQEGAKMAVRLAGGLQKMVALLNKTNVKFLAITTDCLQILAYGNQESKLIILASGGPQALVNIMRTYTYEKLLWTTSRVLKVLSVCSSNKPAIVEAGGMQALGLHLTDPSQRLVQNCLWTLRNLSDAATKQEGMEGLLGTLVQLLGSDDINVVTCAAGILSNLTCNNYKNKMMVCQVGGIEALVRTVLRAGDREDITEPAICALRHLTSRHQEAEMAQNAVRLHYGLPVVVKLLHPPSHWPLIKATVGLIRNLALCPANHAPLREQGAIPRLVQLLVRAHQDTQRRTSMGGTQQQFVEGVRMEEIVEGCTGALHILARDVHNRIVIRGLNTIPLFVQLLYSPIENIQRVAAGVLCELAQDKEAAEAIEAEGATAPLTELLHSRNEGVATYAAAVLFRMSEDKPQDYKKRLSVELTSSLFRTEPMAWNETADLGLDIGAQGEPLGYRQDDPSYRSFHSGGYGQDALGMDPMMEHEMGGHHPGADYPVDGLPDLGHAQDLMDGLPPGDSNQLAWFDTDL

These are yes or no findings as the source states them, for the method shown. Binding seen in cells or lysates may run through a third protein. These calls come from enrichment with a bait or labelling near it, and not all partners need be listed.

For the first assay, the target named is MAC-tagged ROR1 (human) (UniProt Q01973). Description: affinity purification with mass spectrometry; MAC-tagged ROR1 as bait, induced with 1 μg/ml tetracycline for 24 h in Flp-In T-REx 293 cells; 100 µM pervanadate for 15 min before harvest; cells given water or 1 µM GZD824 for 1 h; two biological replicates; high-confidence interactors after statistical filtering.
As to “HCLS1-associated protein X-1 (from UniProt O00165 1-279)”, the binding entry is “binds”.

On to B1, for which the binding result is recorded as “binds”. Same read-out and setting: the entry for B2 is “binds”; for B3 it is “binds”.

A further assay has the same target. Description: proximity labelling; BioID: MAC-tagged ROR1 as bait, induced with tetracycline and 50 μM biotin in Flp-In T-REx 293 cells; 100 µM pervanadate for 15 min before harvest; cells given water or 1 µM GZD824 for 1 h; two biological replicates; high-confidence interactors after statistical filtering.
With ABI2 (from UniProt Q9NYB9 1-513), the binding entry was “binds”. On the same count and under the same terms, the entry for DVL2 (from UniProt O14641 1-736) is “binds”; for GRB2 (from UniProt P62993 1-217) it is “binds”; for MYO6 (from UniProt Q9UM54 1-1294) it is “binds”.

As to PEAK1 (from UniProt Q9H792 1-1746), the binding entry is given as “binds”. Take PIK3R1 (from UniProt P27986 1-724): the binding result is “binds”. With PIK3R2 (from UniProt O00459 1-728), the binding result is given as “binds”. On to “ROR2 (from UniProt Q01974 34-943) (receptor)”, for which the binding entry was “binds”. Take β-catenin (from UniProt P35222 1-781): the binding result is reported as “binds”. Consider B4, for which the binding result is recorded as “binds”.

Regarding B5, the binding result is recorded as “binds”. Still for that read-out and setting: the entry for B6 is “binds”; for B7 it is “binds”.

Regarding B8, the binding result is “binds”.

Values taken from PMC9064840.
